Laboratory results: PubChem BioAssay AID322 (DTP/NCI, 2004)
The list shows only some results of the screen, not a fair sample: it gathers tests that were run many times, whatever their T/C, doses with no T/C, and many T/C values between a quarter and a half above the control. Other doses and runs of a compound stand elsewhere. T/C: endpoint of the treated group in % of that of the vehicle group. Some doses have a count of surviving animals in place of a T/C: the source holds a T/C of zero for them, seemingly a mark for toxic or unscored doses. Some doses without a T/C left all or most animals alive at the check, yet need not have been tolerated: survival well below the control is almost never listed, so the zero probably covers shortened survival too. Survivors were counted at the toxicity check, usually on the fifth day, unless a day is given; later deaths do not show. Schedule codes are those of the source, read here as Q, the interval in days (D) or hours (H), X, the number of doses. Some doses were run more than once; the results are listed from low to high. For survival time, the PubChem record calls one and a half times the control and up active, and a quarter to a half above the control has no call in these data; cut-offs in other NCI protocols can differ. Brackets with × stand for listed records that agree. Some T/C values carry the count of animals alive at the toxicity check (mostly the fifth day); where none is given, no animal had died by that day.

Tested on: CD2F1 mice, P388/ADR leukemia ip, median survival T/C
Assay: NCI In Vivo Anticancer Drug Screen. Data for tumor model P388 Leukemia resistant to Adriamycin; NSC 123127, Developed at Scr 08 (intraperitoneal) in CD2F1 (CDF1) mice
Settings: T/C endpoint: median survival time, higher T/C = longer survival
Method: The antitumor activity of compounds was measured in mice bearing transplantable tumors. Survival or tumor size were measured and the results are expressed as the measurement made in the treated group (T) divided by the measurement made in the vehicle treated control group (C). The tumor model used in this assay is P388 Leukemia resistant to Adriamycin; NSC 123127, Developed at Scr 08 (intraperitoneal) in CD2F1 (CDF1) mice

[1] = dose: 85.0 mg/kg/injection, schedule: Q01DX001 (ip), vehicle: water
[2] = dose: 25.0 mg/kg/injection, schedule: Q01DX005 (ip), vehicle: water
[3] = dose: 25.0 mg/kg/injection, schedule: Q01DX005 (ip), vehicle: saline with Tween-80

Question: What does the source list for `NCCCN=c1ccc2c3c1c(O)c1c(O)ccc(=O)c1c3[nH]n2CCNCCO`?
Answer: T/C (dose: 37.0 mg/kg/injection, schedule: Q01DX001 (ip), vehicle: water, evaluated on day 30): 104 % of control (2×); T/C (dose: 37.0 mg/kg/injection, schedule: Q01DX001 (ip), vehicle: water, evaluated on day 45): 106 % of control (2×); T/C (dose: 56.0 mg/kg/injection, schedule: Q01DX001 (ip), vehicle: water, evaluated on day 30): 106 % of control (2×); T/C (dose: 56.0 mg/kg/injection, schedule: Q01DX001 (ip), vehicle: water, evaluated on day 45): 100 % of control (2×); T/C [1]: 113 % of control (2×); survivor count [1]: 3 of 10; survivor count (dose: 125.0 mg/kg/injection, schedule: Q01DX001 (ip), vehicle: water): 3 of 10

Question: How did the survivor count [2] turn out when `CCOc1ccc(-c2nc3ccc(-c4nc5ccc(N6CCN(C)CC6)cc5[nH]4)cc3[nH]2)cc1` was run?
Answer: The survivor count was 9 of 10.

Question: Which results are given for `CO[C@@]12[C@@H]3N[C@@H]3CN1C1=C(C(=O)C(N3CCCC3)=C(C)C1=O)[C@@H]2COC(N)=O`?
Answer: T/C (dose: 0.78 mg/kg/injection, schedule: Q01DX005 (ip), vehicle: saline with Tween-80): 129 % of control; T/C (dose: 1.56 mg/kg/injection, schedule: Q01DX005 (ip), vehicle: saline with Tween-80): 126 and 131 % of control; T/C (dose: 2.25 mg/kg/injection, schedule: Q01DX005 (ip), vehicle: saline with Tween-80): 129 % of control; T/C (dose: 3.12 mg/kg/injection, schedule: Q01DX005 (ip), vehicle: saline with Tween-80): 129 % of control; T/C (dose: 3.13 mg/kg/injection, schedule: Q01DX005 (ip), vehicle: saline with Tween-80): 147 % of control; T/C (dose: 6.25 mg/kg/injection, schedule: Q01DX005 (ip), vehicle: saline with Tween-80): 129 % of control; survivor count [3]: 10 of 10

Question: For `COc1cc(NCc2ccc3nc(N)nc(N)c3c2C)cc(OC)c1OC`, which T/C (dose: 27.0 mg/kg/injection, schedule: Q01DX009 (ip), vehicle: distilled water + Tween-80) is on record?
Answer: The T/C was 135 % of control.

Question: What about the T/C (dose: 40.0 mg/kg/injection, schedule: Q01DX009 (ip), vehicle: distilled water + Tween-80) of the same compound?
Answer: Its T/C is 130 % of control.

Question: And the T/C (dose: 60.0 mg/kg/injection, schedule: Q01DX009 (ip), vehicle: distilled water + Tween-80)?
Answer: The T/C was 146 % of control.

Question: Which results are given for `COc1ccc2c(c1)-c1nn(CCCN(C)C)c3ccc([N+](=O)[O-])c(c13)N2`?
Answer: T/C (dose: 4.5 mg/kg/injection, schedule: Q01DX005 (ip), vehicle: water): 125 % of control; T/C (dose: 7.5 mg/kg/injection, schedule: Q01DX005 (ip), vehicle: water): 125 % of control; T/C (dose: 12.5 mg/kg/injection, schedule: Q01DX005 (ip), vehicle: water): 133 % of control; T/C (dose: 21.0 mg/kg/injection, schedule: Q01DX005 (ip), vehicle: water): 145 % of control; T/C (dose: 35.0 mg/kg/injection, schedule: Q01DX005 (ip), vehicle: water): 147 % of control

Question: Which results are given for `Cc1c2ccncc2c(C)c2c1[nH]c1ccccc12`?
Answer: T/C (dose: 90.0 mg/kg/injection, schedule: Q04DX002 (ip), vehicle: saline with Tween-80): 138 % of control; T/C (dose: 134.0 mg/kg/injection, schedule: Q04DX002 (ip), vehicle: saline with Tween-80): 135 % of control; T/C (dose: 200.0 mg/kg/injection, schedule: Q04DX002 (ip), vehicle: saline with Tween-80): 144 % of control

Question: How did the survivor count [2] turn out when `CCN(CC)CCn1[nH]c2c3ccc(=O)cc3sc3c(NCCN)ccc1c32` was run?
Answer: The survivor count was 9 of 10.

Question: For `O=[N+]([O-])c1ccc([I+]c2ccccc2)cc1`, which T/C [3] is on record?
Answer: Its T/C is 128 % of control.

Question: What about the T/C (dose: 36.0 mg/kg/injection, schedule: Q01DX005 (ip), vehicle: saline with Tween-80) of the same compound?
Answer: Its T/C is 139 % of control [9 of 10 alive].

Question: What about the T/C (dose: 50.0 mg/kg/injection, schedule: Q01DX005 (ip), vehicle: saline with Tween-80) of the same compound?
Answer: Its T/C is 135 % of control.

Question: And the T/C (dose: 60.0 mg/kg/injection, schedule: Q01DX005 (ip), vehicle: saline with Tween-80)?
Answer: Its T/C is 137 % of control [8 of 10 alive].

Question: And the survivor count (dose: 100.0 mg/kg/injection, schedule: Q01DX005 (ip), vehicle: saline with Tween-80)?
Answer: Its survivor count is 4 of 10.

Question: And the survivor count (dose: 166.67 mg/kg/injection, schedule: Q01DX005 (ip), vehicle: saline with Tween-80)?
Answer: The survivor count was 1 of 10.

Question: And the survivor count (dose: 277.78 mg/kg/injection, schedule: Q01DX005 (ip), vehicle: saline with Tween-80)?
Answer: Its survivor count is 0 of 10.

Question: For `O=C(O)Cc1cccc2c(=O)cc(-c3ccccc3)oc12`, which T/C (dose: 30.0 mg/kg/injection, schedule: Q01DX009 (ip), vehicle: sodium bicarbonate) is on record?
Answer: Its T/C is 138 % of control.

Question: What about the T/C (dose: 44.0 mg/kg/injection, schedule: Q01DX009 (ip), vehicle: saline) of the same compound?
Answer: The T/C was 138 % of control.

Question: What about the T/C (dose: 44.0 mg/kg/injection, schedule: Q01DX009 (ip), vehicle: sodium bicarbonate) of the same compound?
Answer: The T/C was 147 % of control.

Question: And the T/C (dose: 67.0 mg/kg/injection, schedule: Q01DX005 (ip), vehicle: saline)?
Answer: Its T/C is 148 % of control.

Question: What about the T/C (dose: 100.0 mg/kg/injection, schedule: Q01DX009 (ip), vehicle: saline) of the same compound?
Answer: Its T/C is 143 % of control.

Question: And the T/C (dose: 200.0 mg/kg/injection, schedule: Q04DX002 (ip), vehicle: sodium bicarbonate)?
Answer: The T/C was 134 % of control.

Question: For `O=NN(CCCl)C(=O)NCCCl`, which T/C (dose: 10.0 mg/kg/injection, schedule: Q01DX001 (ip), vehicle: saline + alcohol) is on record?
Answer: The T/C was 129 and 142 % of control.

Question: What about the survivor count (dose: 80.0 mg/kg/injection, schedule: Q01DX001 (ip), vehicle: saline + alcohol) of the same compound?
Answer: The survivor count was 10 of 10.

Question: Which results are given for `O=C(O)c1cc(C(=O)O)c(C(=O)O)cc1C(=O)O.[NH2-].[NH2-].[NH2-].[NH2-].[Pt+2].[Pt+2]`?
Answer: T/C (dose: 6.25 mg/kg/injection, schedule: Q01DX005 (ip), vehicle: saline): 140 % of control; T/C (dose: 9.0 mg/kg/injection, schedule: Q01DX005 (ip), vehicle: suspension in saline): 134 % of control; T/C (dose: 12.5 mg/kg/injection, schedule: Q01DX005 (ip), vehicle: saline): 142 % of control; T/C (dose: 15.0 mg/kg/injection, schedule: Q01DX005 (ip), vehicle: suspension in saline): 129 % of control; survivor count (dose: 50.0 mg/kg/injection, schedule: Q01DX005 (ip), vehicle: saline): 4 of 6; survivor count (dose: 69.44 mg/kg/injection, schedule: Q01DX005 (ip), vehicle: suspension in saline): 5 of 10

Question: Which T/C (dose: 4.69 micrograms/kg/injection, schedule: Q04DX003 (ip), vehicle: saline with Tween-80) does the source give for `COc1cccc2c1C(=O)c1c(O)c3c(c(O)c1C2=O)C[C@@](O)(C(=O)CO)C[C@@H]3OC1CC(N2CCOCC2C#N)C(O)C(C)O1` (some centres undefined) here?
Answer: Its T/C is 144 % of control.

Question: What about the survivor count (dose: 37.5 micrograms/kg/injection, schedule: Q04DX003 (ip), vehicle: saline with Tween-80) of the same compound?
Answer: The survivor count was 5 of 6.

Question: And the survivor count (dose: 50.0 micrograms/kg/injection, schedule: Q04DX003 (iv), vehicle: saline + alcohol)?
Answer: Its survivor count is 10 of 10.

Question: What about the survivor count (dose: 75.0 micrograms/kg/injection, schedule: Q04DX003 (ip), vehicle: saline with Tween-80) of the same compound?
Answer: The survivor count was 1 of 6 and 2 of 6.

Question: And the survivor count (dose: 75.0 micrograms/kg/injection, schedule: Q04DX003 (iv), vehicle: saline + alcohol)?
Answer: Its survivor count is 10 of 10.

Question: What about the survivor count (dose: 150.0 micrograms/kg/injection, schedule: Q04DX003 (ip), vehicle: saline with Tween-80) of the same compound?
Answer: Its survivor count is 0 of 6.
